Data: paper PMC12040169 (PLOS Biology, 2025)
This is one part of the list.

test system: T1, CTL2-GFP (C. trachomatis L2/434/Bu, GFP-expressing); set-up: species or system HeLa; Intracellular C. trachomatis growth in HeLa cells, bulk GFP fluorescence relative to DMSO; settings: bulk GFP, single well; 28.5 h, 10 µM; inhibitor
T1 construct: L2/434/Bu, GFP-expressing

Row | Compound | % of control remaining [%]
1 | OCCCCn1c(-c2cccnc2)n[nH]c1=S [CBK288365] | 154.516
2 | CC(=O)NC(c1nccs1)C1CCCN(C(=O)C2CCCC2)C1 (centres unmarked) [CBK284966] | 119.721
3 | CCn1c(SCC(=O)Nc2ccccc2[N+](=O)[O-])nnc1-c1cc(Br)ccc1O [CBK268201] | 112.217
4 | COc1cccc(Oc2nccnc2-c2cccs2)c1 [CBK107059] | 110.455
5 | COc1ccc(-c2cnc3[nH]c(=O)n(CCCN4CCOCC4)c3n2)c(OC)c1OC [CBK064249] | 73.241
6 | Cc1ccc(-c2ncc(OCCC(C)C)nc2N)cc1C [CBK145145] | 128.292
7 | COC(=O)CCCC(=O)n1ccn(-c2cccc(C(F)(F)F)c2)c1=O [CBK106580] | 180.848
8 | O=C(NCc1nc2ccccc2[nH]1)c1cc(-c2ccc(Cl)cc2)cnc1NCc1ccc2c(c1)OCO2 [CBK106377] | 85.6538
9 | CC1=CC(C)C2(COC(=O)Nc3ccccc3)COC(c3cccnc3)C1C2C (centres unmarked) [CBK262844] | 89.6828
10 | N/C(=N\OC(=O)c1ccccc1CCc1ccccc1)c1cccnc1 [CBK268188] | 44.8464
11 | O=C(O)CCCC(=O)N1CCN(C(=O)c2sc3cc(Cl)ccc3c2Cl)CC1 [CBK286973] | 113.643
12 | O=[N+]([O-])c1ccc2nc(Sc3nc4ccccc4[nH]3)sc2c1 [CBK263356] | 100
13 | CC(C)(C)OC(=O)N1CCN(c2ccc(Cl)nn2)CC1 [CBK113381] | 92.8939
14 | Cn1ccnc1C1(O)CCN(C(=O)CC2CCCCC2)CC1 [CBK283647] | 116.105
15 | COCCNc1nccnc1-c1ccccc1F [CBK038044] | 133.343
16 | OB(O)c1ccc(Oc2ccc(B(O)O)cc2)cc1 [CBK261159] | 86.9854
17 | CN(CCN1CCCCC1)C(=O)c1ccccc1Cn1cccn1 [CBK281904] | 102.635
18 | COCCCNC(=O)C1CCCN(c2nc3c(-c4ccccc4)csc3c(=O)[nH]2)C1 (centres unmarked) [CBK215498] | 141.119
19 | O=S(=O)(Nc1cccc2ncccc12)c1ccc(OC(F)(F)F)cc1 [CBK044490] | 96.2443
20 | Cc1ccc(C2=CCN(CC(N)=O)CC2)o1 [CBK283570] | 96.2256
21 | Cc1ccc(S(=O)(=O)N2CCN(C(=O)C3C4C=CC(C4)C3C(=O)O)CC2)cc1 (centres unmarked) [CBK286944] | 113.901
22 | CN(CC(=O)Nc1ccc(N(C)C)cc1)Cc1ccc(F)cc1 [CBK295188] | 150.122
23 | COc1cc(CNc2nccnc2-c2cccc(CO)c2)cc(OC)c1 [CBK037403] | 123.111
24 | CCc1ccc(CNC(=O)Cn2cc(-c3ccc(CN4CCC(CO)CC4)cc3)nn2)cc1 [CBK167551] | 123.46
25 | O=C(c1ccc(F)cc1)C1CCN(C/C=C/c2ccccc2)CC1 [CBK149124] | 100

Row | Compound | % of control remaining [%]
26 | O=C(CN(c1ccc(Cl)cc1)S(=O)(=O)c1ccccc1)Nc1ccc(F)cc1 [CBK264013] | 100
27 | CCN(CC)C(=O)Cn1c(=O)n(Cc2ccco2)c2ncccc21 [CBK284016] | 98.4451
28 | CCOC(=O)c1csc(C2CCCN2C(=O)CC2C=CCCC2)n1 (centres unmarked) [CBK305407] | 135.977
29 | Cc1cccc(NC2=NC(=O)/C(=C\c3ccc(Cl)cc3)S2)c1C [CBK263619] | 79.0686
30 | Cc1ccccc1OC(C)C(=O)NCCCc1ccccc1 (centres unmarked) [CBK268571] | 149.56
31 | COc1cc(/C=N/NC(=O)c2ccccn2)ccc1OC(=O)c1cccc2ccccc12 [CBK262110] | 116.849
32 | CC1CCCC(C)N1S(=O)(=O)c1ccc(NC(=O)CCn2cnc3ccccc3c2=O)cc1 (centres unmarked) [CBK267643] | 141.373
33 | Cc1ccc(C)c(Oc2coc3cc(OCC(=O)Nc4ccccc4C(C)C)ccc3c2=O)c1 [CBK265906] | 182.614
34 | CNC(=O)c1sc2ccccc2c1C1CCN(Cc2nc3ccccc3n2C(C)C)C1 (centres unmarked) [CBK285929] | 73.2905
35 | CC(=O)Nc1ccc(CN(CCO)C2CCc3ccccc32)cc1 (centres unmarked) [CBK304104] | 156.537
36 | Cc1ccc2oc(-c3cccc(NC(=O)c4ccc(-c5ccc([N+](=O)[O-])cc5)o4)c3C)nc2c1 [CBK263437] | 127.913
37 | CC1CCCCN1Cc1nc2c(c(=O)n(C)c(=O)n2C)n1CCCc1ccccc1 (centres unmarked) [CBK269326] | 136.05
38 | Cc1cc(C(=O)Nc2ccc(-c3nc4ccccc4s3)c(O)c2)ccc1[N+](=O)[O-] [CBK262820] | 90.7151
39 | CC(C)(c1ccc(Oc2ccc3c(c2)C(=O)N(c2nccs2)C3=O)cc1)c1ccc(Oc2ccc3c(c2)C(=O)N(c2nccs2)C3=O)cc1 [CBK262258] | 100
40 | S=c1cc(SCc2ccccc2Cl)nc[nH]1 [CBK288496] | 118.455
41 | Cc1c(NC(=O)CN(c2ccccc2)S(=O)(=O)N(C)C)cccc1[N+](=O)[O-] [CBK269012] | 117.844
42 | O=C(O)c1sc2c(ccc3ccccc32)c1Br [CBK018387] | 106.507
43 | COCC(C)NC(=O)c1cc(-c2cccs2)nc2onc(C)c12 (centres unmarked) [CBK306473] | 102.399
44 | COc1cccc(CC(=O)N2CCOc3ncccc32)c1 [CBK305235] | 109.332
45 | O=C(O)CC(=Cc1csc(-c2ccc(Cl)cc2)n1)c1nc2ccccc2o1 [CBK297112] | 142.522
46 | Cc1ccccc1-c1cc(=O)[nH]c(Nc2ccccc2)n1 [CBK288142] | 69.8705
47 | O=C(NC1CCN(CC(F)(F)F)CC1)c1cnc(-c2ccccc2)s1 [CBK305474] | 108.269
48 | O=C(CN1CCC(c2ccncc2)CC1)N1CCCCC1 [CBK283504] | 94.7464
49 | COc1ccc(-n2nc(N)c3c(=O)oc(N(C)C)nc32)cc1 [CBK007445] | 132.441
50 | CN(C)CCNC(=O)c1ccc(-c2cnc3[nH]c(=O)n(CC4CC4)c3n2)cc1 [CBK064578] | 128.555

Grouped by structure: the compounds so far with two or more sulfur atoms (3)
Row | Compound | % of control remaining [%]
12 | O=[N+]([O-])c1ccc2nc(Sc3nc4ccccc4[nH]3)sc2c1 [CBK263356] | 100
39 | CC(C)(c1ccc(Oc2ccc3c(c2)C(=O)N(c2nccs2)C3=O)cc1)c1ccc(Oc2ccc3c(c2)C(=O)N(c2nccs2)C3=O)cc1 [CBK262258] | 100
40 | S=c1cc(SCc2ccccc2Cl)nc[nH]1 [CBK288496] | 118.455
